{"source": "patent US20050142581A1", "about": "“Microrna as ligands and target molecules” (priority 2003, published 2005)", "note": "Some of these results come from one statement about several compounds together. Oligonucleotides are written 5' to 3', each unit as a sugar letter and its base; * is a phosphorothioate linkage, no mark a phosphodiester; rarer units and linkages stand in square brackets, end groups in braces. Plain capitals give the bases only. e = 2'-O-(2-methoxyethyl) (MOE); [5mC] = 5-methylcytosine; d = 2'-deoxy (DNA)", "data": [{"test_system": "human CD40 mRNA", "assay": "Inhibition of CD40 mRNA levels by oligonucleotides (real-time RT-PCR)", "type": "cell-based", "conditions": "phosphorothioate 2′-MOE gapmers, 18 nucleotides (Table 15); averaged from three experiments", "protocol": "When cells reach about 80% confluency, they are treated with oligonucleotide. For cells grown in 96-well plates, wells are washed once with 200 μl Opti-MEM-1 reduced-serum medium (Life Technologies) and then treated with 130 μl of Opti-MEM-1 containing 3.75 μg/ml LIPOFECTIN (Life Technologies) and the desired oligonucleotide at a final concentration of 150 nM. After 4 hours of treatment, the medium was replaced with fresh medium. Cells were harvested 16 hours after oligonucleotide treatment.\nPoly(A)+ mRNA was isolated according to Miura et al. (Clin. Chem., 1996, 42, 1758). Briefly, for cells grown on 96-well plates, growth medium was removed from the cells and each well was washed with 200 ul cold PBS. 60 ul lysis buffer (10 mM Tris-HCl, pH 7.6, 1 mM EDTA, 0.5 M NaCl, 0.5% NP-40, 20 mM vanadyl-ribonucleoside complex) was added to each well, the plate was gently agitated and then incubated at room temperature for five minutes. 55 ul of lysate was transferred to Oligo d(T) coated 96 well plates (AGCT Inc., Irvine, Calif.). Plates were incubated for 60 minutes at room temperature, washed 3 times with 200 ul of wash buffer (10 mM Tris-HCl pH 7.6, 1 mM EDTA, 0.3 M NaCl). After the final wash, the plate was blotted on paper towels to remove excess wash buffer and then air-dried for 5 minutes. 60 ul of elution buffer (5 mM Tris-HCl pH 7.6), preheated to 70° C. was added to each well, the plate was incubated on a 90° hot plate for 5 minutes, and the eluate then transferred to a fresh 96 well plate. Cells grown on 100 mm or other standard plates may be treated similarly, using appropriate volumes of all solutions.\nQuantitation of CD40 mRNA levels was determined by real-time PCR (RT-PCR) using the ABI PRISM 7700 Sequence Detection System (PE-Applied Biosystems, Foster City, Calif.) according to manufacturer's instructions. This is a closed-tube, non-gel-based, fluorescence detection system which allows high-throughput quantitation of polymerase chain reaction (PCR) products in real-time.\nAs opposed to standard PCR, in which amplification products are quantitated after the PCR is completed, products in RT-PCR are quantitated as they accumulate. This is accomplished by including in the PCR reaction an oligonucleotide probe that anneals specifically between the forward and reverse PCR primers, and contains two fluorescent dyes. A reporter dye (e.g., JOE or FAM, PE-Applied Biosystems, Foster City, Calif.) is attached to the 5′ end of the probe and a quencher dye (e.g., TAMRA, PE-Applied Biosystems, Foster City, Calif.) is attached to the 3′ end of the probe. When the probe and dyes are intact, reporter dye emission is quenched by the proximity of the 3′ quencher dye. During amplification, annealing of the probe to the target sequence creates a substrate that can be cleaved by the 5′-exonuclease activity of Taq polymerase.\nWith each cycle, additional reporter dye molecules are cleaved from their respective probes, and the fluorescence intensity is monitored at regular (six-second) intervals by laser optics built into the ABI PRISM 7700 Sequence Detection System. In each assay, a series of parallel reactions containing serial dilutions of mRNA from untreated control samples generates a standard curve that is used to quantitate the percent inhibition after antisense oligonucleotide treatment of test samples.\nRT-PCR reagents were obtained from PE-Applied Biosystems, Foster City, Calif. RT-PCR reactions were carried out by adding 25 ul PCR cocktail (1× Taqman buffer A, 5.5 mM MgCl2, 300 uM each of dATP, dCTP and dGTP, 600 uM of dUTP, 100 nM each of forward primer, reverse primer, and probe, 20 U RNAse inhibitor, 1.25 units AmpliTaq Gold, and 12.5 U MuLV reverse transcriptase) to 96 well plates containing 25 ul poly(A) mRNA solution. […]", "values": [{"substance": "SEQ ID NO:161: 18-nucleotide phosphorothioate 2′-MOE gapmer targeted to human CD40 mRNA (Table 15) (eA*eG*eG*eT*dG*dA*dG*dA*dC*dC*dA*dG*dG*dC*eG*eG*e[5mC]*eA)", "inhibition of CD40 expression": "at least 50%"}, {"substance": "SEQ ID NO:212: 18-nucleotide phosphorothioate 2′-MOE gapmer targeted to human CD40 mRNA (Table 15) (eG*eT*e[5mC]*e[5mC]*dA*dA*dG*dG*dG*dT*dG*dA*dC*dA*eT*eT*eT*eT)", "inhibition of CD40 expression": "at least 50%"}, {"substance": "SEQ ID NO:195: 18-nucleotide phosphorothioate 2′-MOE gapmer targeted to human CD40 mRNA (Table 15) (eG*eT*eG*e[5mC]*dC*dA*dG*dC*dC*dT*dT*dC*dT*dT*e[5mC]*eA*e[5mC]*eA)", "inhibition of CD40 expression": "at least 50%"}, {"substance": "SEQ ID NO:207: 18-nucleotide phosphorothioate 2′-MOE gapmer targeted to human CD40 mRNA (Table 15) (eG*eA*e[5mC]*eT*dG*dG*dG*dC*dA*dG*dG*dG*dC*dT*e[5mC]*eG*e[5mC]*eA)", "inhibition of CD40 expression": "at least 50%"}, {"substance": "SEQ ID NO:181: 18-nucleotide phosphorothioate 2′-MOE gapmer targeted to human CD40 mRNA (Table 15) (eA*eT*eT*e[5mC]*dC*dG*dT*dT*dT*dC*dA*dG*dT*dG*eA*eA*e[5mC]*eT)", "inhibition of CD40 expression": "at least 50%"}, {"substance": "SEQ ID NO:173: 18-nucleotide phosphorothioate 2′-MOE gapmer targeted to human CD40 mRNA (Table 15) (e[5mC]*eT*eG*eG*dC*dA*dC*dA*dA*dA*dG*dA*dA*dC*eA*eG*e[5mC]*eA)", "inhibition of CD40 expression": "at least 50%"}, {"substance": "SEQ ID NO:166: 18-nucleotide phosphorothioate 2′-MOE gapmer targeted to human CD40 mRNA (Table 15) (eG*eA*e[5mC]*eA*dG*dC*dG*dG*dT*dC*dA*dG*dC*dA*eA*eG*e[5mC]*eA)", "inhibition of CD40 expression": "at least 50%"}, {"substance": "SEQ ID NO:184: 18-nucleotide phosphorothioate 2′-MOE gapmer targeted to human CD40 mRNA (Table 15) (e[5mC]*eT*e[5mC]*eT*dG*dT*dT*dC*dC*dA*dG*dG*dT*dG*eT*e[5mC]*eT*eA)", "inhibition of CD40 expression": "at least 50%"}, {"substance": "SEQ ID NO:216: 18-nucleotide phosphorothioate 2′-MOE gapmer targeted to human CD40 mRNA (Table 15) (e[5mC]*eT*eG*eT*dT*dG*dC*dA*dC*dA*dA*dC*dC*dA*eG*eG*eT*e[5mC])", "inhibition of CD40 expression": "at least 50%"}, {"substance": "SEQ ID NO:239: 18-nucleotide phosphorothioate 2′-MOE gapmer targeted to human CD40 mRNA (Table 15) (eG*eG*eT*eG*dC*dA*dG*dC*dC*dT*dC*dA*dC*dT*eG*eT*e[5mC]*eT)", "inhibition of CD40 expression": "at least 50%"}, {"substance": "SEQ ID NO:183: 18-nucleotide phosphorothioate 2′-MOE gapmer targeted to human CD40 mRNA (Table 15) (eT*eT*e[5mC]*eA*dC*dC*dG*dC*dA*dA*dG*dG*dA*dA*eG*eG*e[5mC]*eA)", "inhibition of CD40 expression": "at least 50%"}, {"substance": "SEQ ID NO:218: 18-nucleotide phosphorothioate 2′-MOE gapmer targeted to human CD40 mRNA (Table 15) (eG*eT*e[5mC]*eT*dT*dG*dT*dT*dT*dG*dT*dG*dC*dC*eT*eG*e[5mC]*e[5mC])", "inhibition of CD40 expression": "at least 50%"}, {"substance": "SEQ ID NO:232: 18-nucleotide phosphorothioate 2′-MOE gapmer targeted to human CD40 mRNA (Table 15) (eT*eG*eG*eA*dG*dC*dC*dA*dG*dG*dA*dA*dG*dA*eT*e[5mC]*eG*eT)", "inhibition of CD40 expression": "at least 50%"}, {"substance": "SEQ ID NO:168: 18-nucleotide phosphorothioate 2′-MOE gapmer targeted to human CD40 mRNA (Table 15) (eT*e[5mC]*eT*eG*dG*dA*dT*dG*dG*dA*dC*dA*dG*dC*eG*eG*eT*e[5mC])", "inhibition of CD40 expression": "at least 50%"}]}]}
